Consider two sequences from publication PMC3519889.

Series [1] deals with NarP (SO3982), phosphorylated (Shewanella oneidensis) (UniProt Q8EAC5). Briefly: EMSA. The following applies: 2 ug poly(dI·dC), 100 mM Tris/HCl pH 7.4, 20 mM KCl, 10 mM MgCl2, 2 mM DTT, 10% glycerol, 15 C, 60 min, ~2 nM probe, 4.8% native PAGE, recombinant protein, residues 1-209, protein details: N-terminal His-tag, label: 33P end label, probe letters rebuilt from the primers and the genome. In general terms: A gel shift assay detects complexes by their altered migration in electrophoresis.

Series [2] has the same target. The series is described as follows: competition with a labelled probe. The following applies: excess unlabeled nrfA fragment (10 uM) outcompetes labeled probe; 100 mM Tris/HCl pH 7.4, 20 mM KCl, 10 mM MgCl2, 2 mM DTT, 10% glycerol, 15 C, 60 min, ~2 nM probe, 2 ug poly(dI·dC); 4.8% native PAGE; recombinant protein; residues 1-209; protein details: N-terminal His-tag; label: 33P end label; probe letters rebuilt from the primers and the genome.

For at least one entry, the source does not settle the construct or the ends of the probe. For part of these data: A weaker result is weaker than the reference pair of the same experiment.

For “AAGTTAGTAGCTAAATACCGCTAAAAATATACCTCTTAGGGGGTATCTGAAACGAAGTTTGCGCTAGATCAAAATGTAATAGTGTTGTTGTTCACACTTCTATGCTTTTGTTAATGTAATACATTATTTTCTAATGTAAAAAACACGGCT (double strand) [nrfA promoter fragment]”, the binding result is “binds” in series [1] (NarP phosphorylated by NarQ51-585 and ATP); “binds” in series [2].

Turning to “GTACAACTAAATGTGGATACCTGCGAGTCTAGACCTGATTAAAAATGTGGGTATACCTCACAAGAGGTATTGAAGGGGATAGTCGATCGGGATCAAAGTTTTACGCGTGATCTAACTCTCAGTTTGAAATTTAAACAATCGCTATCCCTT (double strand) [nap promoter fragment]”, the binding result in series [1] (2 uM NarP phosphorylated by NarQ51-585, much lower than nrfA) was “binds more weakly”.
